Structures are written as SMILES.

The chains behind the UniProt entries cited, without tags or fusion partners.
UniProt P33533, whole entry: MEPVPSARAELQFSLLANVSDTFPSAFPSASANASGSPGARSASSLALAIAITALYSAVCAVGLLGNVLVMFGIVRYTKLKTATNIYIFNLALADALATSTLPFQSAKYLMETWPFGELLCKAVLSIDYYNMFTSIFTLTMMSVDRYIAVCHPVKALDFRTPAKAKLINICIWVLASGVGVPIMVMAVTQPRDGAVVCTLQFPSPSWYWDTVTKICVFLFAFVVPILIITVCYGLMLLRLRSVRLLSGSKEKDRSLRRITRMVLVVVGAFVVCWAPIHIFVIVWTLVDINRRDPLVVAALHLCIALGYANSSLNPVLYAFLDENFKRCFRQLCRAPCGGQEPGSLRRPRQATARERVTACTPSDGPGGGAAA

1 compound from BindingDB's records for doi:10.1016/s0014-2999(99)00610-x (Hungarian Academy of Sciences, 1999) can be followed below.

For the test, the target named is Delta-type opioid receptor (Rattus norvegicus, UniProt P33533).

As for `CC[C@H](C)[C@H](NC(=O)[C@H](CCC(=O)O)NC(=O)[C@H](Cc1ccccc1)NC(=O)[C@@H](C)NC(=O)[C@@H](N)Cc1ccc(O)cc1)C(=O)N[C@H](C(=O)NCC(N)=O)[C@@H](C)CC` [(S)-4-((S)-2-{(R)-2-[(S)-2-Amino-3-(4-hydroxy-phenyl)-propionylamino]-propionylamino}-3-phenyl-propionylamino)-4-{(1S,2S)-1-[(1S,2S)-1-(carbamoylmethyl-carbamoyl)-2-methyl-butylcarbamoyl]-2-methyl-butylcarbamoyl}-butyric acid], the Ki is 1.9 µM.
